Measurements: paper PMC12170836
Results are given in words; binding and its absence hold for the method and conditions named. In cells and extracts the contact can be indirect. Some entries that bind do so weakly or less than the wild type. For some assays here: Sequences can lack the tags named with a protein.

What was measured:
[1] = target: YTHDC1 W378A-FLAG (UniProt E9Q5K9); test: co-IP; primary white adipocytes (Appendix Fig. S6B); adenoviral infection
[2] = target: T1, ARIH2-FLAG (UniProt Q9Z1K6); test: co-IP; HEK293T cells co-transfected for 30 h; lysates in RIPA buffer; immunoprecipitated with anti-FLAG beads, immunoblotted with anti-HA and anti-FLAG; for the ARIH2-FLAG panels cells were treated with MG132 (20 μM) for 6 h
T1 sequence: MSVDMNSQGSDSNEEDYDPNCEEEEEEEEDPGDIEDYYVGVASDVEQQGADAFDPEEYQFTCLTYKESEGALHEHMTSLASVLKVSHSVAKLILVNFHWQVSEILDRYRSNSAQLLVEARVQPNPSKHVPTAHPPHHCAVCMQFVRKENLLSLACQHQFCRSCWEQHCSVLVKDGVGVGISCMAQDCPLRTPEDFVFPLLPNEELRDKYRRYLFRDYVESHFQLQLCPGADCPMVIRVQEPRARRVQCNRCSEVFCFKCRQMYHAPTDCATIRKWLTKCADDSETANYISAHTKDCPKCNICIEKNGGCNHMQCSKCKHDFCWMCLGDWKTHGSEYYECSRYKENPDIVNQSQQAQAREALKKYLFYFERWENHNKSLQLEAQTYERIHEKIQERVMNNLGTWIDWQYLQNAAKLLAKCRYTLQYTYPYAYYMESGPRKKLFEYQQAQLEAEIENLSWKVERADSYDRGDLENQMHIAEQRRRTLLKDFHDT

[3] = target: YTHDC1 W378A-FLAG (UniProt E9Q5K9); test: as above
[4] = target: T1, ARIH2-FLAG; test: co-IP; primary brown adipocytes co-infected with adenoviruses (48 h; overnight for Ad-ARIH2-FLAG); lysates in RIPA buffer; immunoprecipitated with anti-FLAG beads, immunoblotted with anti-HA and anti-FLAG; for the ARIH2-FLAG panel cells were treated with MG132 (20 μM) for 6 h
[5] = target: YTHDC1 W378A-FLAG (UniProt E9Q5K9); test: as above

binding [1]: binds | binding [2]: binds | binding [3]: binds | binding [4]: binds | binding [5]: binds
Substance: PPARγ-HA (from UniProt P37238 1-505)
